These results are taken from the supplement of paper PMC11732987, “Enantioselective OTUD7B fragment discovery through chemoproteomics screening and high-throughput optimisation” (Communications Chemistry, 2025).

Protein sequences, listed by entry. Tags and fused reporters are not part of them. Lines headed by an entry give the natural chain unless they say otherwise; changes in a name come on top. Residues count along the entry.
UniProt Q86VP3, whole entry, looked up: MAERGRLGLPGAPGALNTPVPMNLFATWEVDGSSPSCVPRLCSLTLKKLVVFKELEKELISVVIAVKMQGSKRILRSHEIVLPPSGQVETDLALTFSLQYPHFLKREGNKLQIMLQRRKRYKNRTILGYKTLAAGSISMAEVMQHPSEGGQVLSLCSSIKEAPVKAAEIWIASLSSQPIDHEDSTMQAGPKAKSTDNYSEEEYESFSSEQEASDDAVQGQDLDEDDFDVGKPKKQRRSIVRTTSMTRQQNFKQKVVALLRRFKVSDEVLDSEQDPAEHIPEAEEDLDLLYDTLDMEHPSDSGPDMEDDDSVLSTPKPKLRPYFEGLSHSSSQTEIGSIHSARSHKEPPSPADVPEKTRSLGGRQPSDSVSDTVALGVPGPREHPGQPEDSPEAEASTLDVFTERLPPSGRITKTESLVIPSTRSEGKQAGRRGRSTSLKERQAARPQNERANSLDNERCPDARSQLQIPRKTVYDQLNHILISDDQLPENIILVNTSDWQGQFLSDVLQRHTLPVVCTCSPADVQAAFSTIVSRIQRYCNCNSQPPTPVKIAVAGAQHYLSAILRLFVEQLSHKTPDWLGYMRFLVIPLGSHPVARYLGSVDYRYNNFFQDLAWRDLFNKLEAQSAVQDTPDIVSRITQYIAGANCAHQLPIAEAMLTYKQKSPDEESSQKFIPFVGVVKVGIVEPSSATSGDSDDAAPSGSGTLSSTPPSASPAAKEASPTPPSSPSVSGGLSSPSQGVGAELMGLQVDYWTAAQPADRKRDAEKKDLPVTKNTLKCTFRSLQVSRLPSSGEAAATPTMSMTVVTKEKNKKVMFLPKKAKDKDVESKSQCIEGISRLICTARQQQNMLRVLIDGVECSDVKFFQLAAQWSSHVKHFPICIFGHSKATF
UniProt Q8N5Y8: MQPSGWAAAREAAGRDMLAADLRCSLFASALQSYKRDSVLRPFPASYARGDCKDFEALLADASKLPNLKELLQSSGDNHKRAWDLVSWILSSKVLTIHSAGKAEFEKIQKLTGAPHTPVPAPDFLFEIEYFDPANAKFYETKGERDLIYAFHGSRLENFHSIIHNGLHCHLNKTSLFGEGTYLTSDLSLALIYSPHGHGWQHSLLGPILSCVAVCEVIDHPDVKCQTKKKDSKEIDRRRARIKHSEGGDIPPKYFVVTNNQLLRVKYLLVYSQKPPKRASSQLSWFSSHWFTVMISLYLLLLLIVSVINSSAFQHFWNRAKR
UniProt Q15004: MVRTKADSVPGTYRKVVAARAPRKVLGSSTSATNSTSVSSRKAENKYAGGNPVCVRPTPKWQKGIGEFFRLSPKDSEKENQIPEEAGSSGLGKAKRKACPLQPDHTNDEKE
UniProt Q7L3T8, 151-170: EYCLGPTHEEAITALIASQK
UniProt P05166: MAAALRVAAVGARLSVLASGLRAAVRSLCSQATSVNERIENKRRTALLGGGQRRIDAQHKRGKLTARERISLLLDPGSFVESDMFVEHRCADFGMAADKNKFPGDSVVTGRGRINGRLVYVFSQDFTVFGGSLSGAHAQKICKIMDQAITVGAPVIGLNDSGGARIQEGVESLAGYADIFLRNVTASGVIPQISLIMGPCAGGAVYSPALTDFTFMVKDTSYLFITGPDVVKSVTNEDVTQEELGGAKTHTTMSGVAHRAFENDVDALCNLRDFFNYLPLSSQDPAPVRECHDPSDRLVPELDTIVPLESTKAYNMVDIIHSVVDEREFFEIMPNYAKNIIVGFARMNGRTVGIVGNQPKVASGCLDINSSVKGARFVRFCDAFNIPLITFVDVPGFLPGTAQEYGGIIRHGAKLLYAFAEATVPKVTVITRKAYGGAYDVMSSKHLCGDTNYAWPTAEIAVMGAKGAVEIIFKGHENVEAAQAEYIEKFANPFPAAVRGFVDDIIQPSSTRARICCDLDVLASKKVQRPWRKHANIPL
UniProt Q8WX93: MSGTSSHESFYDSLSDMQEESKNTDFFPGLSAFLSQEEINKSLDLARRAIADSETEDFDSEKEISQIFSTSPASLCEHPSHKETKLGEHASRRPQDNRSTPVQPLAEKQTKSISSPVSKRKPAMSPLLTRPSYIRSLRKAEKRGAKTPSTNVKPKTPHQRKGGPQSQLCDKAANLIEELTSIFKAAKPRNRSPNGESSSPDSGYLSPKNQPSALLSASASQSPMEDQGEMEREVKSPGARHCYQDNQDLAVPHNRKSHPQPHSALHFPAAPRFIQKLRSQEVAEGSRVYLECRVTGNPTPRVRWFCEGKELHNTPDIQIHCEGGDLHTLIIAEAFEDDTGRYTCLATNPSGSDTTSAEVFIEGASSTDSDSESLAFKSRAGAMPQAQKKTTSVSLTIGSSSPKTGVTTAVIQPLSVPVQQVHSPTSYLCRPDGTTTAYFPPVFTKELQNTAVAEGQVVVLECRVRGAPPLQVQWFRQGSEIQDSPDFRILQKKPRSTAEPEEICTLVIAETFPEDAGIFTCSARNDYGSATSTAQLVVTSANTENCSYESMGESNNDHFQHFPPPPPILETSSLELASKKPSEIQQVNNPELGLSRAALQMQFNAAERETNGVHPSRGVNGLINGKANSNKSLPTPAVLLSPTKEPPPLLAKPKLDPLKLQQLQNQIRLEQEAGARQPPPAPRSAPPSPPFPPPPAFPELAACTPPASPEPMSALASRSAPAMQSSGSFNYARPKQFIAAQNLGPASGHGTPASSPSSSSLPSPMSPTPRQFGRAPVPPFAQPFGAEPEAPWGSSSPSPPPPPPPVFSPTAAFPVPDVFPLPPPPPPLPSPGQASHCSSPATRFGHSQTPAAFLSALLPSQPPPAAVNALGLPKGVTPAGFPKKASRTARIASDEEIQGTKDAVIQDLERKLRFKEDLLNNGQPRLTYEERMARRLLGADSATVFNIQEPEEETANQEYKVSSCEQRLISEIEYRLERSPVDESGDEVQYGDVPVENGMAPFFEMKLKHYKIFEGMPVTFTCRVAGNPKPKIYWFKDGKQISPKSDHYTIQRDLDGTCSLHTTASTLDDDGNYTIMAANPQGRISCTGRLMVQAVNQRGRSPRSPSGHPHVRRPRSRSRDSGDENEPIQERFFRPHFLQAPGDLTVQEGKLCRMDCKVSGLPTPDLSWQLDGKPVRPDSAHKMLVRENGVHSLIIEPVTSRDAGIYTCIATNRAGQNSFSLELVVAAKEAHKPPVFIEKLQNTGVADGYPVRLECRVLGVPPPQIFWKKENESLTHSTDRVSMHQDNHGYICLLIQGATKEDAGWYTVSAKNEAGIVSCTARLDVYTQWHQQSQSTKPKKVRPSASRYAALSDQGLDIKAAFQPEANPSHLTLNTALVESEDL
UniProt Q96RV3: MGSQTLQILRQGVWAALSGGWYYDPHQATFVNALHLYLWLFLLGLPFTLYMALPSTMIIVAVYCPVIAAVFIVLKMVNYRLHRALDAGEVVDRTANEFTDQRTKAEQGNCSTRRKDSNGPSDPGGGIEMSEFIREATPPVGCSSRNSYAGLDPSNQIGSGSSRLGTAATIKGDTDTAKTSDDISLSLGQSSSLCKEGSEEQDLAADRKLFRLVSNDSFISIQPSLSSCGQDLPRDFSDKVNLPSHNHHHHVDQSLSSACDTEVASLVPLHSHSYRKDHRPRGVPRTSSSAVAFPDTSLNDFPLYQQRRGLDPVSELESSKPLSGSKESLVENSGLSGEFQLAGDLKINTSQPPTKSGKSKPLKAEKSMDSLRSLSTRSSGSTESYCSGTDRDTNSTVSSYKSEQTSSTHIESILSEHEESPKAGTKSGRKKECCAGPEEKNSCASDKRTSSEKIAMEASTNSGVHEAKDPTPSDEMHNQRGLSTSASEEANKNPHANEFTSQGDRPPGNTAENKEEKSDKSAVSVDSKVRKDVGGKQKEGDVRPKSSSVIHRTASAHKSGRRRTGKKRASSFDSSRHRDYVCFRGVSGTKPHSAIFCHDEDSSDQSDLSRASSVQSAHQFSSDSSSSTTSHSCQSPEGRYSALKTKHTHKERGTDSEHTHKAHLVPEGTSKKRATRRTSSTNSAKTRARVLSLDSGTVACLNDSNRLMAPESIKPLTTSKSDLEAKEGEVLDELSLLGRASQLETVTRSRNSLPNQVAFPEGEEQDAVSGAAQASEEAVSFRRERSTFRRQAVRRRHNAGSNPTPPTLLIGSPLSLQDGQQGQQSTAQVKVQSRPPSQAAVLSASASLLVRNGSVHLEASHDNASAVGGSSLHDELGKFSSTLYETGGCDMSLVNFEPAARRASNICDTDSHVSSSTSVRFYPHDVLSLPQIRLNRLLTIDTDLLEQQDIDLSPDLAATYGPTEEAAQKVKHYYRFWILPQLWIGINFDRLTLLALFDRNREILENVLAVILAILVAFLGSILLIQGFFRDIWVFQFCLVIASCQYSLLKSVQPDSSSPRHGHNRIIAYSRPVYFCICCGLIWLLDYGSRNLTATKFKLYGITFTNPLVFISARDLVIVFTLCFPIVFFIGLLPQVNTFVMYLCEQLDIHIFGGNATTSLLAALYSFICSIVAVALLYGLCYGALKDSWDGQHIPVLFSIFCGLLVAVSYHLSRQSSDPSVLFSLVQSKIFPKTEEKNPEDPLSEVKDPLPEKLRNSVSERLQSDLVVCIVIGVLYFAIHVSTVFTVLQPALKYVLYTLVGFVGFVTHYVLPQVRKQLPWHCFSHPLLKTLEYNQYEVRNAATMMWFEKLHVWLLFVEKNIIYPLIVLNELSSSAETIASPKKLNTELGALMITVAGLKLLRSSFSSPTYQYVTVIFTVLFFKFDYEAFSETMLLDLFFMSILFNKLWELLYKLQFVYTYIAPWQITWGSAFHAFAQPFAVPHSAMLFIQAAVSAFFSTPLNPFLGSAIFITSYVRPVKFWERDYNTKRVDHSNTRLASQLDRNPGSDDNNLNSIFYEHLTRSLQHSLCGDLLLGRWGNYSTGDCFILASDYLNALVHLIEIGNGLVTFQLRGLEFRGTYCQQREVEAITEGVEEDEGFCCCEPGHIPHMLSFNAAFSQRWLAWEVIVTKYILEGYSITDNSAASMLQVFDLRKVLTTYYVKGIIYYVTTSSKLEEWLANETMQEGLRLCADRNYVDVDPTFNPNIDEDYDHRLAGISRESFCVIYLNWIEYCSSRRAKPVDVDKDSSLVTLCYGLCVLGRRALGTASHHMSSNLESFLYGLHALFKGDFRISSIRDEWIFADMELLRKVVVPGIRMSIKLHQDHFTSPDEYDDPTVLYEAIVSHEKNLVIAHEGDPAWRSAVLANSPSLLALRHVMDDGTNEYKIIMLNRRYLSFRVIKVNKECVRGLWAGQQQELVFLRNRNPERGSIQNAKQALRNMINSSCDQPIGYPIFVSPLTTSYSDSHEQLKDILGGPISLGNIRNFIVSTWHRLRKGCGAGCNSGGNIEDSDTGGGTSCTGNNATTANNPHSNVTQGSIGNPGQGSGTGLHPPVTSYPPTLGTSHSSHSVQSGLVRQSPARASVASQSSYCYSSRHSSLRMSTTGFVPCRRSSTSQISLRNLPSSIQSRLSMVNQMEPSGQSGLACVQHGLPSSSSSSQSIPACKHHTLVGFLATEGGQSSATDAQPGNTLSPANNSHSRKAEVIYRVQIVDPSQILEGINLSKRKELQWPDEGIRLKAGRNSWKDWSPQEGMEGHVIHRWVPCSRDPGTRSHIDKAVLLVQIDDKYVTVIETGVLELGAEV
UniProt Q8N8D1: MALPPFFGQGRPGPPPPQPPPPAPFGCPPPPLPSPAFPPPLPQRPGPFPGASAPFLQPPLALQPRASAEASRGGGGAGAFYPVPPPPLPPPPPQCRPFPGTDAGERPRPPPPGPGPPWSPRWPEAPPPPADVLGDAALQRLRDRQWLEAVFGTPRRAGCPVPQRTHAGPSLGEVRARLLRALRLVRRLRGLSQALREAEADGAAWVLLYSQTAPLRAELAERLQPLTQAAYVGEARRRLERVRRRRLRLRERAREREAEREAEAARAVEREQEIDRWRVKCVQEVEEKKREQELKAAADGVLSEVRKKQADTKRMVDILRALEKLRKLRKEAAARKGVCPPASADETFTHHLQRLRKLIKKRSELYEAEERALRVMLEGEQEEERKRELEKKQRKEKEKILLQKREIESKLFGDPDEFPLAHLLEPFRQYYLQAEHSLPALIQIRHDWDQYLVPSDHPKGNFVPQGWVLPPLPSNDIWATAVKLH
UniProt Q8TEW0, 51-74: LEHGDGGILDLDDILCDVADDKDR
UniProt P53609, whole entry, looked up: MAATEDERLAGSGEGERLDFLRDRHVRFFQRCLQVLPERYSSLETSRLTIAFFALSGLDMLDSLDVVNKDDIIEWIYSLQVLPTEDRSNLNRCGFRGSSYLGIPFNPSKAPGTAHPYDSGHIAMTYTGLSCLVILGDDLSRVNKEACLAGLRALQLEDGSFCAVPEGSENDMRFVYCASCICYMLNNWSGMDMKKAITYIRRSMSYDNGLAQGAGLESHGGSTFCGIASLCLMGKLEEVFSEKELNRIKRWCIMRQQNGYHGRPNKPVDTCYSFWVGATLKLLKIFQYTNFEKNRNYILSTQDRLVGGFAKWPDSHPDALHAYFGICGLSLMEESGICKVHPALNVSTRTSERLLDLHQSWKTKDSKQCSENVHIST
UniProt P30039, 18-37: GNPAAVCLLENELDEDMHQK

Some of the results follow. The data scatter; read single values as rough.

Compound in test [1]: ClCC(=O)N[C@@H]1CCCc2ccccc12
Kind of test: log2 mean competition ratio of IA-DTB cysteine labelling (DMSO/compound) (log2 ratio); higher = stronger cysteine engagement by compound. Particulars: treatment time: 4 h, cell line lysate: HEK293T. The protocol:
(§1)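 IA-DTB competitive cysteine chemoproteomics in HEK293T RIPA lysate. Lysates were treated with compound 29 or 30 at 50 or 200 µM for 4 h, then IA-DTB (500 µM, 1 h), trypsin-digested, NeutrAvidin-enriched and analysed by diaPASEF. Competition ratio = intensity DMSO / intensity compound (n=4 treated, n=64 DMSO); binding: mean log2 CR ≥ 1 and p ≤ 0.05 plus QC filters. Target is the cysteine site.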

Compound in test [2]: ClCC(=O)N[C@H]1CCCc2ccccc12
The description is as above. Particulars: treatment time: 4 h, cell line lysate: HEK293T. The protocol:
as §1

PDLIM3 C297: the “log2 mean competition ratio” value in test [1] (50 µM) is 0.306; in test [1] (200 µM) it was -0.246; in test [2] (50 µM), 0.891; in test [2] (200 µM), -0.13.

For the target PEX6 C309 (UniProt Q13608), the “log2 mean competition ratio” value in test [1] (50 µM) is -0.0498; in test [1] (200 µM) it was -0.317; in test [2] (50 µM), -0.0876; in test [2] (200 µM), -0.359.

In the case of PACS2 C831 (UniProt Q86VP3), the “log2 mean competition ratio” value is -0.252 in test [1] (50 µM), 0.0824 in test [1] (200 µM), -0.218 in test [2] (50 µM) and 0.376 in test [2] (200 µM).

In the case of PARP16 C52 (UniProt Q8N5Y8), the “log2 mean competition ratio” value in test [1] (50 µM) is 0.089; in test [1] (200 µM), -0.0822; in test [2] (50 µM) it was -0.025; in test [2] (200 µM), -0.0437.

With PCNT C2576 (UniProt O95613), the “log2 mean competition ratio” value in test [1] (50 µM) was -0.00424; in test [1] (200 µM), -0.25; in test [2] (50 µM), -0.167; in test [2] (200 µM), -0.183.

With PHC3 C816 (UniProt Q8NDX5), the “log2 mean competition ratio” value in test [1] (50 µM) was -0.0215; in test [1] (200 µM) it was -0.0388; in test [2] (50 µM), 0.0515; in test [2] (200 µM), -0.00409.

Take PCLAF C99 (UniProt Q15004): the “log2 mean competition ratio” value in test [1] (50 µM) stood at 0.298; in test [1] (200 µM), 0.125; in test [2] (50 µM), 0.216; in test [2] (200 µM), 0.165.

For the target PC C131 (UniProt P11498), the “log2 mean competition ratio” value in test [1] (50 µM) was -0.0518; in test [1] (200 µM) it was -0.197; in test [2] (50 µM), 0.171; in test [2] (200 µM), -0.0804.

Take PCCA C111 (UniProt P05165): the “log2 mean competition ratio” value was -0.0688 in test [1] (50 µM), -0.255 in test [1] (200 µM), -0.132 in test [2] (50 µM) and -0.323 in test [2] (200 µM).

Take PARS2 C153 (UniProt Q7L3T8): the “log2 mean competition ratio” value in test [1] (50 µM) was 0.0185; in test [1] (200 µM), -0.0257; in test [2] (50 µM), -0.409; in test [2] (200 µM), -0.222.

Turning to PCBP2 C109, the “log2 mean competition ratio” value is -0.101 in test [1] (50 µM), -0.0244 in test [1] (200 µM), -0.0405 in test [2] (50 µM) and 0.0901 in test [2] (200 µM).

As to PCCB C90 (UniProt P05166), the “log2 mean competition ratio” value is 0.0321 in test [1] (50 µM), -0.115 in test [1] (200 µM), -0.0409 in test [2] (50 µM) and -0.0201 in test [2] (200 µM).

For the target PDCD11 C151 (UniProt Q14690), the “log2 mean competition ratio” value was 0.226 in test [1] (50 µM), 0.0903 in test [1] (200 µM), 0.159 in test [2] (50 µM) and 0.0657 in test [2] (200 µM).

As to PALLD C964 (UniProt Q8WX93), the “log2 mean competition ratio” value in test [1] (50 µM) was -0.121; in test [1] (200 µM) it was 0.0558; in test [2] (50 µM), -0.132; in test [2] (200 µM), 0.133.

Take PCNX1 C142 (UniProt Q96RV3): the “log2 mean competition ratio” value in test [1] (50 µM) was -0.226; in test [1] (200 µM), 0.294; in test [2] (50 µM) it was 0.0449; in test [2] (200 µM), 0.059.

PDCD7 C281 (UniProt Q8N8D1): the “log2 mean competition ratio” value is -0.226 in test [1] (50 µM), -0.059 in test [1] (200 µM), -0.413 in test [2] (50 µM) and -0.0629 in test [2] (200 µM).

For PARD3 C66 (UniProt Q8TEW0), the “log2 mean competition ratio” value in test [1] (50 µM) is -0.227; in test [1] (200 µM), 0.567; in test [2] (50 µM), -0.356; in test [2] (200 µM), 0.454.

For the target PGGT1B C369 (UniProt P53609), the “log2 mean competition ratio” value in test [1] (50 µM) was -0.171; in test [1] (200 µM), -0.0383; in test [2] (50 µM), 0.0123; in test [2] (200 µM) it was 0.0448.

On to PCNT C2614 (UniProt O95613), for which the “log2 mean competition ratio” value in test [1] (50 µM) is -0.16; in test [1] (200 µM) it was 0.0071; in test [2] (50 µM) it was 0.0093; in test [2] (200 µM), -0.00155.

Regarding PAXIP1 C748 (UniProt Q6ZW49), the “log2 mean competition ratio” value was -0.0954 in test [1] (50 µM), -0.391 in test [1] (200 µM), 0.279 in test [2] (50 µM) and -0.187 in test [2] (200 µM).

As for OTUD5 C224 (UniProt Q96G74), the “log2 mean competition ratio” value in test [1] (50 µM) was 0.0633; in test [1] (200 µM), -0.115; in test [2] (50 µM), 0.0684; in test [2] (200 µM), -0.147.

In the case of PBLD C24 (UniProt P30039), the “log2 mean competition ratio” value was 0.1 in test [1] (50 µM), -0.0483 in test [1] (200 µM), 0.0065 in test [2] (50 µM) and 0.00391 in test [2] (200 µM).
